# Laboratory results from paper PMC6948192, “Structural Organization and Dynamics of Homodimeric Cytohesin Family Arf GTPase Exchange Factors in Solution and on Membranes” (Structure(London, England:1993), 2019).
# Chains of the proteins cited; added tags and fusions are not shown. Lines headed by an entry give the natural chain unless they say otherwise; changes in a name come on top. Residues count along the entry.
# UniProt Q99418, residues 50-400: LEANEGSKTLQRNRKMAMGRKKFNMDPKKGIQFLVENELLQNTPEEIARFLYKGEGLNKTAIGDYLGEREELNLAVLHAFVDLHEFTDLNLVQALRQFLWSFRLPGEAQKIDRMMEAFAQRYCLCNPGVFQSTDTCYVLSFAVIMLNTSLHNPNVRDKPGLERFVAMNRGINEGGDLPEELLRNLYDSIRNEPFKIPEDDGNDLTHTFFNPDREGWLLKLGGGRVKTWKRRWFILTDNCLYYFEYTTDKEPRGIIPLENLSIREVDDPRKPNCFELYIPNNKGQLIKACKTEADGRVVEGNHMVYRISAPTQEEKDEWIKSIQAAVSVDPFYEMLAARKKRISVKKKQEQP
# Results are given in words; binding and its absence hold for the method and conditions named.
# Molecular target: ARNO construct truncated for the N-terminal CC domain (residues 50-400; ARNOΔNt) (human) (UniProt Q99418)
# Assay: SEC-SAXS; ARNOΔNt; SWING beamline (SOLEIL), Bio SEC-3 300 Å column, 350 μg in 40 μL (8 mg/ml) injected; 20 mM Tris pH 8.0, 150 mM NaCl, 1 mM DTT; both purified
substance,measurement,value
ARNO construct truncated for the N-terminal CC domain (residues 50-400; ARNOΔNt) (from UniProt Q99418 50-400) (domain or fragment),binding,no binding (tested: 8 mg/ml injected (350 μg in 40 μL))
